# Screening data, single-dose tests

Chains of the proteins cited; added tags and fusions are not shown. Residues count along the entry.
UniProt Q8IDJ8, 1-583: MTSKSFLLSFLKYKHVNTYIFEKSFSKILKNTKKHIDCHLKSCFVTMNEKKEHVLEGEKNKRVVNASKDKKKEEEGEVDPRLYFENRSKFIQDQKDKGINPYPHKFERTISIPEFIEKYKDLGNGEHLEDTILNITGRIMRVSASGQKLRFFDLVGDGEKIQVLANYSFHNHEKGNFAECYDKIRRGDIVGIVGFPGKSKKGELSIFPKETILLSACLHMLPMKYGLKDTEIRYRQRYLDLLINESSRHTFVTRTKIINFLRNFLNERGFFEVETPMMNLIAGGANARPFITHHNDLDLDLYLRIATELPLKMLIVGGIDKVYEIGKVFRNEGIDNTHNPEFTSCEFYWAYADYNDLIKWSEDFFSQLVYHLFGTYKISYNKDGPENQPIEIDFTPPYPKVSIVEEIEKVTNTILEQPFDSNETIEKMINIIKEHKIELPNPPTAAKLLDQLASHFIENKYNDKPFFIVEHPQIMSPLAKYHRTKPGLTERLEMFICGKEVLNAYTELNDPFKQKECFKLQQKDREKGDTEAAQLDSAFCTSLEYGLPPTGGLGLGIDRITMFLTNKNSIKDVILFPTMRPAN
UniProt P9WNZ1, whole entry: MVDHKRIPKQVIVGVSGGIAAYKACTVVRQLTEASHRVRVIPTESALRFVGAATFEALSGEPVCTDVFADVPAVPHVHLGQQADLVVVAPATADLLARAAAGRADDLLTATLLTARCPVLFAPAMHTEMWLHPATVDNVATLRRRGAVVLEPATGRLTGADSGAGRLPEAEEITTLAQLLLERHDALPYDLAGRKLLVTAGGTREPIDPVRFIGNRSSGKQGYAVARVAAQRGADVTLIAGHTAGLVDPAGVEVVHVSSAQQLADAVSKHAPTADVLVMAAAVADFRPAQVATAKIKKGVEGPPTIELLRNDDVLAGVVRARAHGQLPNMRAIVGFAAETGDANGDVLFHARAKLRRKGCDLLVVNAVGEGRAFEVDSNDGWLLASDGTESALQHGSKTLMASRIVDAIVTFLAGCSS

Source: ChEMBL document CHEMBL3988442, “University of Dundee, Small-Polar-MMV Screening Library” (2021).

Results are given as percent effect. How 0% and 100% were set is not recorded. Most values in the screen are low, and negative values occur. Compounds were drawn at random from those tested, without regard to their results.

A: 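Lysine-tRNA ligase, Plasmodium falciparum 3D7 (UniProt Q8IDJ8). Enzyme assay of the cytosolic lysyl-tRNA synthetase in 384-well plates, read by luminescence. Concentration: 30 µM. Direction is inferred from only a few compounds that gave an IC50; most scored high, so higher reads as stronger inhibition. About 69,000 compounds were tested under these conditions; 0.071% (about 49) showed 50% or more at least once.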
B: 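Assay of Toxoplasma gondii numbers, read through their beta-galactosidase reporter with a colour substrate. Compounds at 10 µM. Higher reads as fewer parasites (inferred from which compounds were picked for retests). Size under these conditions: about 67,000 compounds, about 260 of them at 50% or above in at least one test.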
C: 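Coenzyme A biosynthesis protein CoaBC, Mycobacterium tuberculosis (UniProt P9WNZ1). Enzyme assay of CoaBC with a phosphate dye (Biomol Green) read at 650 nm. Concentration: 30 µM. Direction is inferred from only a few compounds that gave an IC50; most scored high, so higher reads as stronger inhibition. Most strong results did not repeat in a second test. Size under these conditions: about 67,000 compounds, about 40 of them at 50% or above in at least one test.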

For c1cncc(-c2noc(CN3CCn4c(nnc4C4CC4)C3)n2)c1 the result was A: -0.03346%; B: -8.529%; C: 0.7895%. Result for O=C(O)C(F)(F)F.O=C(O)C(F)(F)F.[H][C@@]12COC[C@]1(COCc1cccc(C)n1)CN(c1cc(OC)ncn1)C2 was B: -0.4841%. With N#CCCN(C(=O)CN1CCCC1c1ccsc1)c1ccccc1 (stereo not drawn) the screen gave A: -0.2812%; B: 10.7%; C: 5.355%. For O=C1CCc2cc(-c3csc(CCN4CCCC4=O)n3)ccc2N1 the result was A: 6.504%; B: 8.47%; C: -5.783%. Cn1c(NCC(=O)N2CCCCC2)c(C#N)c(=O)n(C)c1=O gave A: 4.08%; B: -18.55%; C: 11.95%.

For Cc1nc(CNCC2Cn3nncc3CO2)cs1 (stereo not drawn) the result was A: 3.292%; C: 0.7426%. Result for CC(Nc1ncnc2c1CCNC2)c1ccc(C(C)(C)C)cc1 (stereo not drawn) was A: 5.096%; C: 3.321%. With Cc1nc(N2CCOCC2)nc2c1CCN(C(=O)NC1CCCC1)CC2 the screen gave A: -3.09%; B: -2.152%; C: 2.019%. CC(C)N1CCCC(Cc2nccnc2Cl)C1 (stereo not drawn) gave A: 1.493%; B: 10.67%; C: -0.9709%. For CC(C)OCc1noc(C2CCCOC2)n1 (stereo not drawn) the result was A: 1.98%; B: -2.908%; C: 3.169%.

For CN(CCN1CCOCC1)C(=O)CCc1ccc(C(F)(F)F)cc1 the result was A: -2.864%; B: -1.347%; C: 11.16%. CS(=O)(=O)N1C[C@H]2CCC[C@@]2(COc2ccccn2)C1 gave A: -4.613%; C: 4.762%. For CNC(=O)C(c1cccc(Cl)c1)C(C)C (stereo not drawn) the result was A: -5.447%; B: -9.738%; C: -3.071%. Cc1csc(CN(C)S(=O)(=O)c2ccc(C)c(N(C)C)c2)n1 gave A: 1.347%; B: -4.662%; C: 5.952%. Result for [H][C@@]12CCN(Cc3c(C)noc3C)[C@]1([H])CC[C@H](c1nnc(C)o1)O2 was B: 2.991%.

Result for Cc1cccc(CS(=O)(=O)CC(=O)N(C)Cc2ccccc2F)c1 was A: 12.33%; B: 2.779%; C: -6.695%. O=C(NCCn1ccnc1-c1cc2n(n1)CCCNC2)c1ccncc1 gave A: 1.728%; B: -12.11%; C: -3.893%. For Cc1cc(C)c(CNC(=O)N2CCCC2C(N)=O)c(=O)[nH]1 (stereo not drawn) the result was A: 0.6533%; B: 4.331%; C: 5.744%. Result for COCCN1CCc2ncnc(NC3CC3)c2CC1 was A: 4.68%; B: 5.349%; C: -2.723%. With Cc1ccc(-c2cc(CN3CCCC(Cn4cncn4)C3)on2)cc1 (stereo not drawn) the screen gave A: -5.107%; B: 1.557%; C: 3.426%.

With Cc1nc(CN(C)C2CCCN(c3cccnn3)C2)oc1C (stereo not drawn) the screen gave A: -0.5202%; B: 2.391%; C: -1.364%. For Cc1cc(CN(C)C(=O)c2ccc(C(F)(F)F)nc2)no1 the result was A: -1.495%; B: -3.291%; C: 6.128%. With Cc1ccc(-c2nc(CN(Cc3ccco3)C3CCS(=O)(=O)C3)cs2)o1 (stereo not drawn) the screen gave A: 3.214%; B: -12%; C: 4.032%. CCN1C(=O)[C@]2(CC[C@@H]3CN(S(=O)(=O)CC(C)C)C[C@@H]32)N=C1C gave A: 4.783%; C: 2.792%. With Cc1ccsc1C(=O)N1C[C@@H](C(=O)O)[C@H](C(C)C)C1 the screen gave A: -1.232%; B: 2.499%; C: -2.479%.

Result for COc1cccc2c3c(c(=O)[nH]c12)CC(C)(C)O3 was A: 0.7088%; B: 5.193%; C: -0.8949%. Result for CN1CCc2nc(C3CCCN(S(=O)(=O)N4CCCC4)C3)ncc2C1 (stereo not drawn) was A: 0.1698%; B: 30.59%; C: 0.9864%. For CC(=O)N1CCC(C(=O)NC2CC(C)(C)Oc3cc(C)ccc32)CC1 (stereo not drawn) the result was A: 3.16%; B: -3.111%; C: -1.229%. For CCn1ncc(NC(=O)c2cc(C3CC3)nc3c2c(C)nn3C)c1C the result was A: 4.917%; B: -6.88%; C: 12.43%. Result for O=C(CC1CCCC1)N1CCn2cc(Cn3cccn3)nc2C1.O=C(O)C(F)(F)F was B: -44.04%.

Cc1ccnc(CC(C)N(C)Cc2ccc3c(c2)OCCO3)c1 (stereo not drawn) read A: 7.213%; B: -28.39%; C: -6.374%. Result for COC(=O)CNC(=O)c1ccn(-c2ccc(Cl)c(Cl)c2)n1 was A: 3.214%; B: -9.454%; C: 3.396%. CN(C)CC1CSCCCN1C(=O)c1ccc(C(C)(C)C)cc1 (stereo not drawn) read A: 6.11%; B: -4.102%; C: 2.408%. For Cc1ncc(CN2CCC3(CC2)CC(=O)N(C)C3)cn1 the result was A: -2.061%; B: 10.28%; C: -5.462%.

Repeated from the top, 4 entries:

* c1cncc(-c2noc(CN3CCn4c(nnc4C4CC4)C3)n2)c1 : A: -0.03346%; B: -8.529%; C: 0.7895%
* O=C(O)C(F)(F)F.O=C(O)C(F)(F)F.[H][C@@]12COC[C@]1(COCc1cccc(C)n1)CN(c1cc(OC)ncn1)C2 : B: -0.4841%
* N#CCCN(C(=O)CN1CCCC1c1ccsc1)c1ccccc1 (stereo not drawn) : A: -0.2812%; B: 10.7%; C: 5.355%
* O=C1CCc2cc(-c3csc(CCN4CCCC4=O)n3)ccc2N1 : A: 6.504%; B: 8.47%; C: -5.783%